Consider 2 molecules from publication doi:10.1101/2025.08.12.669905.

Results are given in words; binding and its absence hold for the method and conditions named. Binding seen in cells or lysates may run through a third protein. Here binding means that the protein was enriched with, or labelled near, the bait; the list need not be complete.

The test concerns the target T1, Mediator subunit MED16 (endogenous) (human (endogenous in 293T and HeLa)) (UniProt Q9Y2X0).
T1 sequence: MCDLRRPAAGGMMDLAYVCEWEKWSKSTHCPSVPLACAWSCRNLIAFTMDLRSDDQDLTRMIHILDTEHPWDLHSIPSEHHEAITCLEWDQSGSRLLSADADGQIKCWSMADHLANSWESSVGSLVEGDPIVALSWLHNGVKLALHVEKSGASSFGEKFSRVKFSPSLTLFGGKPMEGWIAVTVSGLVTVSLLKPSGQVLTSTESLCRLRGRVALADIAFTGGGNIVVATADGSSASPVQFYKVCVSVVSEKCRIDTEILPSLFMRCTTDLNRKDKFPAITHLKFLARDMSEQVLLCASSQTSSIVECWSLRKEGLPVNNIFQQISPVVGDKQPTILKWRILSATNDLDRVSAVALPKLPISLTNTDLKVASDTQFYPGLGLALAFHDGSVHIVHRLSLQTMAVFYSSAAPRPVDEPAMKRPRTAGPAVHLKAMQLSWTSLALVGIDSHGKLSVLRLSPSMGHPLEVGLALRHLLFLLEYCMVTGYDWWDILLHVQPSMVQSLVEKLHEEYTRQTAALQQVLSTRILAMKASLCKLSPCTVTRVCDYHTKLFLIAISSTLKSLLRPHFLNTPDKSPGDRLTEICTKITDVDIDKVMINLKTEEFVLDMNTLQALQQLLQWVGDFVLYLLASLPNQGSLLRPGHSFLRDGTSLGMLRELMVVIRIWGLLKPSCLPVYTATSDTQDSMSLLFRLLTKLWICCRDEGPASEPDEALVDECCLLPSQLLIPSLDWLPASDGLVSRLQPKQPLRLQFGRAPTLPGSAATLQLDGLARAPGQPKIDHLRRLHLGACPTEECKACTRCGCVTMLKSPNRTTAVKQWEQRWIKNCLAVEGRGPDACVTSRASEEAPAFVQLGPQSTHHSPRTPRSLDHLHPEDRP
Kind of test: affinity purification with mass spectrometry.

B1: UBP1 (endogenous) (protein, UniProt Q9NZI7 1-540)
chain: MAWVLKMDEVIESGLVHDFDASLSGIGQELGAGAYSMSDVLALPIFKQEDSSLPLDGETEHPPFQYVMCAATSPAVKLHDETLTYLNQGQSYEIRMLDNRKMGDMPEINGKLVKSIIRVVFHDRRLQYTEHQQLEGWKWNRPGDRLLDLDIPMSVGIIDTRTNPSQLNAVEFLWDPAKRTSAFIQVHCISTEFTPRKHGGEKGVPFRIQVDTFKQNENGEYTDHLHSASCQIKVFKPKGADRKQKTDREKMEKRTAHEKEKYQPSYDTTILTEMRLEPIIEDAVEHEQKKSSKRTLPADYGDSLAKRGSCSPWPDAPTAYVNNSPSPAPTFTSPQQSTCSVPDSNSSSPNHQGDGASQTSGEQIQPSATIQETQQWLLKNRFSSYTRLFSNFSGADLLKLTKEDLVQICGAADGIRLYNSLKSRSVRPRLTIYVCREQPSSTVLQGQQQAASSASENGSGAPYVYHAIYLEEMIASEVARKLALVFNIPLHQINQVYRQGPTGIHILVSDQMVQNFQDESCFLFSTVKAESSDGIHIILK
As to B1, the binding entry is listed as “binds”.

B2: TFCP2 (endogenous) (protein, UniProt Q12800 1-502)
chain: MAWALKLPLADEVIESGLVQDFDASLSGIGQELGAGAYSMSDVLALPIFKQEESSLPPDNENKILPFQYVLCAATSPAVKLHDETLTYLNQGQSYEIRMLDNRKLGELPEINGKLVKSIFRVVFHDRRLQYTEHQQLEGWRWNRPGDRILDIDIPMSVGIIDPRANPTQLNTVEFLWDPAKRTSVFIQVHCISTEFTMRKHGGEKGVPFRVQIDTFKENENGEYTEHLHSASCQIKVFKPKGADRKQKTDREKMEKRTPHEKEKYQPSYETTILTECSPWPEITYVNNSPSPGFNSSHSSFSLGEGNGSPNHQPEPPPPVTDNLLPTTTPQEAQQWLHRNRFSTFTRLFTNFSGADLLKLTRDDVIQICGPADGIRLFNALKGRMVRPRLTIYVCQESLQLREQQQQQQQQQQKHEDGDSNGTFFVYHAIYLEELTAVELTEKIAQLFSISPCQISQIYKQGPTGIHVLISDEMIQNFQEEACFILDTMKAETNDSYHIILK
Regarding B2, the binding entry was “binds”.
